This note sets out measurements from PubChem BioAssay AID1347423 (Functional Genomics Laboratory (NCATS/FGL), 2020).

Screen size: about 52,000 sequences; about 210 (0.4%) were called active.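 The calls were made as follows: active = gene whose silencing raises cell survival under the drug, median off-target-corrected z-score across its silencing RNAs 2 or more; inactive = the rest.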 The list shows a part of the results.

This assay in a line: Resistance to Poly (ADP-Ribose) Polymerase inhibitor: Gene Identification via Genome-wide siRNA Screen. The following applies: mouse BRCA2 R2336H ES cells, olaparib, CellTiter-Glo viability; active compounds read high. In short, it runs like this: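 Mouse BRCA2 R2336H ES cells were reverse-transfected with siRNA (20 nM final), treated at 48 h with 500 nM olaparib, and read by CellTiter-Glo after 72 h. Scores: MAD-based z per siRNA, median per gene, seed off-target correction.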
(In general: ATP-based viability assays read luminescence as a measure of living cells.)
Turning to CCGAUUUUGCACCUCAGCUTT against Bphl, the z-score was inactive: -0.252. Consider GCUCUCCUGAAAUUAUGUATT against Wrb, for which the z-score was inactive: 0.497.

In the case of GCUGAUCCUCUCCCUUCAUTT against Tas2r131, the z-score is inactive: -0.303. The value for GGGUGGUCAGUGGUCAAAATT against Chodl was inactive: -0.36; that for “GGAUGAACCUACACCCUAATT against 2610209N15Rik” was inactive: -0.567; that for GCAGAUCAGAAGAAAUUUGTT against Jmy was inactive: 0.571. Regarding “CGUGAUUGUGGACCAUUCUTT against 2310075G12Rik”, the z-score was inactive: -0.492.

Turning to GGUGGUUGAAAAGAAAACUTT against Hspa5, the z-score was inactive: -0.998. In the case of “GGAUCUGUAUUGUAAACAATT against 5330414D10Rik” it was inactive: 0.846.

In the case of GCGAAUUGAAGGCUCGGGATT against Dnm2, the z-score was inactive: -0.0964. In the case of GCUCAGAAAUCGGCUCAGATT against Ssbp2, the z-score was inactive: -0.7. On to GGAAAGAGAGUCUUAAAUGTT against Ncb5or, for which the z-score is inactive: -1.07. Turning to CCGUGUCCAACAUUCUCUCTT against Tas1r2, the z-score is inactive: 0.201. As for GCUAUCACCACAACUACCATT against Cyp46a1, the z-score is inactive: -1.11. For GGAGCCACCACAACUAUAATT against F2rl2, the z-score was inactive: 0.157. Consider GGAUGCAUUCAUGAGUAUUTT against Ifng, for which the z-score is inactive: -1.32. Turning to GGUGAACAUGCGCAUCAAATT against Ugt1a5, the z-score is inactive: 1.05. With GGGAUUUAACAACAUGUAATT against Slc20a1, the z-score is active: 2.29. In the case of CGAUUUAUUCUGCUAUUGGTT against Pla2g7 it was inactive: 1.07. In the case of GCGUAUAUAUACUUCACUGTT against Stxbp3 it was inactive: -1.84; in that of GGUAAUGGAAAUGAACAAATT against Zfp353, inactive: 0.457.

Take “CGUCUCCUGAACUUAGAAUTT against 1110008F13Rik”: the z-score is inactive: -1.09. In the case of GGAAUUCCCAAGAGAAGGATT against Gyk it was inactive: -2.02; in that of CGCAACCUGAAAAUGGCAUTT against BC022687, inactive: 0.361; in that of CCAAAUGAGGCUACCACAATT against Socs7, inactive: -1.31.

Consider GGAGAAGCUGCCUUUCAUGTT against BC030476, for which the z-score is inactive: 0.63. GCAGUUGGUUCAAGUCAACTT against Psat1: the z-score was inactive: 0.841.

In the case of GAUUCUUACUUUGGUCUACTT against Olfr9, the z-score was inactive: -0.866.

Take GGCAAUCGAGAUUAUGCCATT against Itgav: the z-score is inactive: 0.26. As to GGCCGUGCCAUUCAAAGACTT against Aoah, the z-score is inactive: 0.167. On to CCGAGAAACGAAUAAGUCATT against Rbmx, for which the z-score is inactive: 0.138.

Consider GGAUAUACUGUGGAGGCUUTT against Gzmd, for which the z-score was inactive: -1.17. As to GGAACUCAGUAACACCCAGTT against Fcamr, the z-score is inactive: 0.348. On to GGUAACGAUGAGGUCAUCGTT against Atp6ap1, for which the z-score was inactive: -0.733. For CCUGCUAAAGGCUUCUCAATT against LOC217066, the z-score was inactive: -0.348.

Turning to “CCAUUAUUGGCCCAUGCUCTT against 5430437P03Rik”, the z-score was inactive: 0.809. Turning to GCUACUAAACAGGGUGUGATT against Gpsm3, the z-score is inactive: -1.1.

As to GGAGUACGAGCAAAUGGUGTT against Nfkbia, the z-score is inactive: 0.631.

With GGUGUGUUUUAUGUGUCCCTT against Gm672, the z-score is inactive: -0.591. CCUAUUACUCUCAAGGUUCTT against BC019943: the z-score is inactive: 0.828. On to CCUAUAAUGCUGAAAUGGCTT against Olfr702, for which the z-score was inactive: -0.343. As for “GGAAAAAUCAUCCUGGCUCTT against 1110002B05Rik”, the z-score was inactive: -0.199. In the case of CCACUUUCCCAUUCAGGAATT against Gpr84 it was inactive: 0.893; in that of “GGUUUAAGCACUACAGUGATT against 2310022M17Rik”, inactive: 0.555. As to CCUUUCCUUUAUUGAUCUCTT against Olfr888, the z-score was inactive: -0.0698. For GCUAAACUCCACCAAGACATT against Grid2ip, the z-score was inactive: 1.8. On to GCGGGAAUGGAACGAAAACTT against Otx1, for which the z-score is inactive: 0.349. Regarding GGAGGAAAAGUAGGUUUGCTT against Peli1, the z-score was inactive: 0.222. Turning to GGUACUAUUCAGUCCUUUATT against Gm1012, the z-score was inactive: -0.491. Regarding “GCUCCUGUUUAAGCAUAUGTT against A930012M17”, the z-score was inactive: 0.717. CGUACUCAAAGGCUAACCGTT against Lamc1: the z-score was inactive: -0.386. On to GUGGUUUCGGUGCUUGGGUTT against Svs3, for which the z-score was inactive: -1.9. Consider GCUCAUCGGUCAGAUCAAATT against Syt3, for which the z-score is inactive: 0.474. For GGCUAAGGACUUGCCAACUTT against Pip5k2b, the z-score was inactive: -0.271. The value for “CGGAAAUAAGUUUCCCUUGTT against 2310039H08Rik” was inactive: -0.503; that for “GCUAAAUUUGGGCACUAAUTT against 1810036I24Rik” was inactive: 1.03. Consider “GGAGAAGACUUGUAACAAATT against 4933428I03Rik”, for which the z-score was inactive: -1.95. As for GCUUGUGAUCGACUCUGCATT against Centb5, the z-score was inactive: 0.0161. Take GGACUAUGUCAUCAAGAUUTT against Napsa: the z-score is inactive: 1.78.

Consider GGAAAGGAUCCAGACUUUATT against Crisp2, for which the z-score was inactive: 0.556. For the sequence CGUGUCCAAAGGUGAAUCATT against Psmd1, the z-score was inactive: -3.5. GGAGAGAAUACUAUUUCAATT against Pknox1: the z-score was inactive: 0.884. CGGUGACGAACAACUUGAATT against Tpm1: the z-score was inactive: 0.0484.

For GGAAUAAAAGGAGAGAAAGTT against Slc14a2, the z-score was inactive: -0.0891.

With GGAAACAGGAUUAAGCUAGTT against Ankrd27, the z-score was inactive: 0.527. As for GGAGAUUAAAGCUUCAAAATT against Ldhd, the z-score is inactive: 0.76. For the sequence GCACUAGACGAGAUGACAATT against Eif4g2, the z-score is inactive: -0.835. Turning to GGUAGUAGUGAAACCCAGGTT against Irs4, the z-score was inactive: -1.25. In the case of UGGGUAUUACCAUAAAUGUTT against Tas2r114, the z-score is inactive: 0.824. “GGAAUUCUGCACCUCCCAATT against A730020M07Rik”: the z-score is inactive: 0.236.

GCUAUGUCAUAUCAUCAAGTT against Gpr64: the z-score was inactive: 1.17. Consider GGCAUGGUGGUCUUUCCUUTT against Sephs1, for which the z-score is inactive: 1.54.

In the case of GGAUUCUCAAUAAAGACUUTT against Apoa1bp, the z-score was inactive: 0.561.

For the sequence GGACCUAAGCAGAAAACUGTT against Mrg2, the z-score was inactive: 0.392.

As to GGAGCAUAGAAAAGACAAUTT against Adrbk1, the z-score is inactive: -0.902.

With GCCCAACUUUCAACAAGACTT against Ptgds, the z-score was inactive: -0.0597. On to GGUUCGUAAAAUUAUUAGGTT against Vcl, for which the z-score is inactive: -0.00255.

For the sequence UUUAGCUUUCUUCUGGCUCTT against Olfr438, the z-score is inactive: 0.413. Turning to GGGCGAAAACCAUUCAAAUTT against Zfp112, the z-score is inactive: 0.534. CCGUAUUAGAAAGUAGAUATT against Arpp19: the z-score is inactive: 0.46. As for CGGACAAGAUAGUAUUCUUTT against Atp2b1, the z-score was inactive: 0.843. Consider GGAACUGGUGUCAGUGUUGTT against Psmd14, for which the z-score is inactive: 0.55. In the case of CCACUACGUUGUUGAUCACTT against Pcdhga11 it was inactive: -0.846; in that of GGCGCAUCAUUAUUACCUCTT against BC042698, inactive: 0.445; in that of GGUUCUUUGGCUCUGUAUGTT against Atp5c1, inactive: -2.21. With GCUUACCUUACAUUGUAAGTT against Eda2r, the z-score is inactive: 1.74.

Take CCGCUUGGUUACCAGUGACTT against Nudc: the z-score was inactive: -2.71. Take GGACAAAGGGAUUGCCAUUTT against Il1f9: the z-score is inactive: -0.951.

Turning to GGUCAACAAUCACUUUUUCTT against Pip5k2c, the z-score is inactive: -0.285. As to GGCAAAGGCCUAUGAACUGTT against Phka1, the z-score was inactive: 2.8. In the case of GCAAGAAACCAACCAAUCCTT against 6-Sep it was inactive: -1.11; in that of GGAACAAAGAUGUCAAGAUTT against Olfr904, inactive: -0.238; in that of “CGACCAUUAUACAACAGAUTT against F630111L10Rik”, inactive: 0.0313. As to GACCAUCAGUGAUUGAGGATT against Speer4b, the z-score is inactive: 0.195. As to GGAAACAGUCAUGCAGCAATT against Plvap, the z-score was inactive: 2.68. In the case of GGGCCAAUGAUGGACUUCCTT against Syp it was inactive: 0.221; in that of GGACUUACUGACAAGAAACTT against Pcdhgb8, inactive: -0.429; in that of GGUGAAGACUUCCAGAAGGTT against Reg3a, inactive: -0.335. In the case of GCCAGUGGUAUCUGGAAGUTT against Brca2 it was inactive: 0.761; in that of GGAGACGGAGCUGUUAGAUTT against Plcb1, inactive: 0.513. In the case of GCCGCUCUGUACUUUGUCUTT against BC014699, the z-score is inactive: 0.268. Consider CCUGAUGAUUCAACAAAAGTT against Pum2, for which the z-score was inactive: 1.09. On to CCUACAUCCUCCAUAGAAUTT against LOC434228, for which the z-score is inactive: 1.33. On to GGGUAUAGGGAUGGUGAAUTT against Ppil1, for which the z-score is inactive: 0.65. The value for GCCAAUUGGACCUUAGAAATT against Nup107 was inactive: -1.9.
